Measured values published in PubChem BioAssay AID2685 (National Center for Advancing Translational Sciences (NCATS), 2010).
About 2,100 (0.66%) of roughly 320,000 compounds were called active. Inconclusive means that the source gave no clear call. Such entries were picked first, then a sample of the others. Calls come from the whole dose curve; as a rule, active = well fitted inhibition curve with a large enough effect in the signal ratio, with a control signal flat (not every such curve was filed as active); inconclusive = small, poorly fitted or top-dose-only effect, or effect the other way, or a change in a side signal; inactive = flat fitted curve, though single readings scatter; the % refers to the signal ratio. Potencies of inconclusive entries are doubtful fits and often do not repeat.

assay: qHTS Assay for Lipid Storage Modulators in Drosophila S3 Cells; details: BODIPY lipid droplet fluorescence, 18-24 h, cells fed with added oleic acid; lipid storage change, negative = inhibition: at 46.1 µM (top of the series) unless noted
Outline: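 Drosophila S3 cells loaded with oleic acid (400 uM, as added) and compounds at several concentrations; lipid droplets imaged by 488-nm laser-scanning cytometry, 500–530 nm intensity and object ratio to cell channel. Percent activity normalized to 20 uM Triacsin C.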
% is set by controls: 0 for no effect and ±100 for the full control effect; potency is the fitted concentration of half-maximal effect.

| Compound | lipid storage change, negative = inhibition | Potency |
| --- | --- | --- |
| Cc1c(CC(=O)N2CCN(C(=O)C3COc4ccccc4O3)CC2)c(=O)oc2cc(O)ccc12 (centres undefined) | inconclusive: 4.48% | – |
| Cc1ccc(C)c(NC(=O)CSc2nnc(C3CCCCC3)o2)c1 | inconclusive: 103% | – |
| O=C(COC(=O)/C=C/c1ccc([N+](=O)[O-])cc1)Nc1ccc2[nH]c(=O)[nH]c2c1 | – | inconclusive: 6.51 µM [activator, single point] |
| COc1ccc(NC(=O)CN(C)C(=O)c2cccc3ccccc23)cc1 | inconclusive: -20.1% | – |
| Cc1ccc(/C=N/Nc2nncn2N)cc1 | inconclusive: -21.7% | – |
| Cc1cc(C(=O)NNC(=O)c2ccc(NC(=O)CC#N)cc2)c(C)o1 | inconclusive: 100% | – |
| O=[N+]([O-])C(=C1Nc2ccccc2N1)C(Cl)=C(Cl)Cl | inconclusive: -16% | – |
| CC1CCN(C(=O)c2ccc(NC(=O)c3ccccc3)cc2)CC1 | inconclusive: -5.21% | – |
| Cc1ccc(-c2csc(C3C(N)=NC(S)=C(C#N)C34CCCCC4)n2)cc1 (centres undefined) | – | inconclusive: 29.1 µM [activator, single point] |
| CC1(C)CC(=O)C2=C(C1)OC(N)=C(C#N)C21CCN(C(=O)OCc2ccccc2)CC1 | – | inconclusive: 0.731 µM [activator, partial curve] |
| CCC(=O)c1ccc(OCC(O)CN2CCN(c3ccc(F)cc3)CC2)cc1 (centres undefined) | inconclusive: -1.2% | – |
| Fc1cccc(Nc2nc(-c3ccncc3)nc3ccccc23)c1 | – | inconclusive: 16.4 µM [falling, partial curve, poor fit] |
| O=C(Cc1ccccc1)N/N=C/c1ccc[nH]1 | inactive | – |
| CC(C)c1ccc(N(CC(=O)NC2CCCC2)C(=O)CCC(=O)Nc2ccccn2)cc1 | – | inconclusive: 0.146 µM [falling, partial curve, poor fit] |
| O=C(CNC(=S)NC(=O)c1cccs1)c1ccccc1 | inconclusive: 27.2% | – |
| O=C(CCNC(=O)c1ccc([N+](=O)[O-])cc1)Nc1cc(Cl)ccc1N1CCOCC1 | – | inconclusive: 29.1 µM [activator, single point] |
| O=C(CCNC(=O)c1ccco1)Nc1ccc(OC(F)(F)F)cc1 | inconclusive: -63.3% | – |
| Cc1c(NC(=O)c2cc(-c3ccc(F)cc3)on2)c(=O)n(-c2ccccc2)n1C | – | inconclusive: 25.9 µM [activator, single point] |
| CC(C)CC1Nc2ncnc(N3CCN(c4ccccc4)CC3)c2N(Cc2ccc(Br)cc2)C1=O (centres undefined) | inconclusive: 22.2% | – |
| CC(C)(C)c1csc(NC(=O)Cn2cnc3ccccc3c2=O)n1 | – | inconclusive: 6.51 µM [rising, single point] |
| COc1ccc(C2C(C(=O)NCc3cccnc3)c3cc(OC)c(OC)cc3C(=O)N2C)cc1 (centres undefined) | inconclusive: 41.3% | – |
| CCc1cc(=O)oc2cc(C)c(CN3CCCC3)c(O)c12 | – | inconclusive: 3.66 µM [activator, single point] |
| Cc1ccc(NC(=O)Nc2cnccn2)cc1 | inconclusive: -100% | – |
| O=C(CN1C(=O)c2ccccc2S1(=O)=O)NCCSCc1ccco1 | – | inconclusive: 0.731 µM [falling, full curve] |
| N=c1c(C(=O)NCCc2ccccc2)cc2c(=O)n3ccccc3nc2n1Cc1ccco1 | – | active: 0.82 µM |

| Compound | lipid storage change, negative = inhibition | Potency |
| --- | --- | --- |
| Nc1nc(N2CCN(c3ccccc3)CC2)n[nH]1 | – | inconclusive: 29.1 µM [cytotoxic, single point] |
| CC1CCCN(CCCNC(=O)c2cc3c(s2)-c2ccccc2OC3)C1 (centres undefined) | inconclusive: -7.69% | – |
| C=CCc1c(C)nc(SCCC)[nH]c1=O | inconclusive: -4.35% | – |
| OCCNc1nc(-c2cccnc2)nc2ccccc12 | inconclusive: 13.6% | – |
| COc1cc(/C=N/NC(=O)c2cccc([N+](=O)[O-])c2)ccc1OCc1ccccc1 | inconclusive: 3.83% | – |
| COCCCNC(=O)/C(C#N)=C/c1c(N2CCN(c3ccccc3)CC2)nc2c(C)cccn2c1=O | inconclusive: -24.4% | – |
| COC(=O)C1=CN(Cc2ccc(OC)c(OC)c2)C=C(C(=O)OC)C1c1cccs1 | inconclusive: 0.0568% | – |
| COc1ccccc1OCCCn1cc(C#N)c2ccccc21 | – | inconclusive: 6.51 µM [activator, single point] |
| COc1ccc(-c2c(-c3cc(OC)c(OC)c(OC)c3)noc2C)cn1 | – | inconclusive: 0.146 µM [activator, full curve, poor fit] |
| O=C(CCC1CCCN(C(=O)c2cc(C3CC3)[nH]n2)C1)N1CCN(c2ccccn2)CC1 (centres undefined) | inconclusive: -5.9% | – |
| COc1ccc(C(=O)C[n+]2ccccc2/C=N/O)cc1 | inconclusive: 196% | – |
| CCC1CCCCN1Cc1nc2c(c(=O)n(C)c(=O)n2C)n1Cc1cccc2ccccc12 (centres undefined) | inconclusive: 10.3% | – |
| O=C(CSc1nnc(C2COc3ccccc3O2)o1)N1CCCCC1 (centres undefined) | inconclusive: -19% | – |
| CCN(CC(=O)Nc1c(F)cccc1F)C(=O)CCCc1cccs1 | inconclusive: -4.41% | – |
| Brc1ccc(-c2nnc(-c3ccc4c(c3)OCO4)o2)o1 | – | inconclusive: 0.0052 µM [falling, full curve, poor fit] |
| O=C(CCC(=O)c1cccs1)NNC(=O)c1ccccc1Cl | – | inconclusive: 29.1 µM [activator, single point] |
| CN=C1S/C(=C\c2c(OC)cc(OC)cc2OC)C(=O)N1C | – | active: 0.58 µM |
| CSc1n[nH]c(NC(C)=O)n1 | inconclusive: 35.5% | – |
| O=C(Cn1cncn1)N/N=C/c1ccccc1Cl | inconclusive: 15.9% | – |
| CCOC(=O)C1CCN(CC(O)COc2ccc(C(C)(C)C)cc2)CC1 (centres undefined) | inconclusive: 40.4% | – |
| O=[N+]([O-])c1cccnc1N1CCN(Cc2ccc3c(c2)OCO3)CC1 | – | inconclusive: 1.64 µM [activator, partial curve] |
| S=C(c1ccc(N2CCCC2)c(Br)c1)N1CCCCC1 | inconclusive: -35.4% [at 0.369 µM] | – |
| O=C(O)COCC(=O)Nc1ccc(OCCc2ccccc2)cc1 | – | inconclusive: 20.6 µM [activator, single point] |
| O=C(C1=C[C@@H](c2ccc3c(c2)OCO3)C[C@@H](OCc2ccc(CO)cc2)O1)N1CCOCC1 | inconclusive: 17.1% | – |

Taken from above:
Under lipid storage change, negative = inhibition, `COCCCNC(=O)/C(C#N)=C/c1c(N2CCN(c3ccccc3)CC2)nc2c(C)cccn2c1=O` shows inconclusive: -24.4%
Under lipid storage change, negative = inhibition, `CC1CCCN(CCCNC(=O)c2cc3c(s2)-c2ccccc2OC3)C1` (centres undefined) shows inconclusive: -7.69%
Under lipid storage change, negative = inhibition, `CCC1CCCCN1Cc1nc2c(c(=O)n(C)c(=O)n2C)n1Cc1cccc2ccccc12` (centres undefined) shows inconclusive: 10.3%
Under lipid storage change, negative = inhibition, `COC(=O)C1=CN(Cc2ccc(OC)c(OC)c2)C=C(C(=O)OC)C1c1cccs1` shows inconclusive: 0.0568%
